Results deposited as PubChem BioAssay AID1224826 (NIAID, 2016)

- Test: 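Knock-downs that raise or lower Tnf reporter signal after endotoxin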 (primary screen)
- System: RAW264.7 G9 macrophages from mouse bearing reporters for p65 (GFP) and the Tnf promoter (mCherry)
- Reagents: siRNA pool against mouse genes, 100 nM
- Duration: 16 h of LPS stimulation, after 2 days of siRNA transfection
- Treatment: bacterial lipopolysaccharide (Salmonella minnesota R595), 10 ng/ml
- Measured: 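Imaged Tnf reporter mCherry in nuclei, minus background, normalised per plate to the median and expressed as robust z-scores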
- Direction: Tnf reporter robust z-score: higher = stronger Tnf promoter reporter signal after LPS
- Active means: 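a well counts as active at a score of -1.3 or below (Tlr4 knock-down control median) or above 3 (raised signal); controls and wells holding fewer than 50 cells are excluded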
- Calls: active = Tnf reporter clearly lowered or raised; inactive = no clear change in Tnf reporter
In all, the deposit lists about 17,000 reagents; below is a random part of them. About 1,110 of them (6.6%) were called active. 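Active means lowered or raised reporter signal; replicate intensities are raw and not normalised per plate.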 A number with no mark means an inactive call. Not all columns of the deposit are shown. Reagent sequences are not shown.

Silencing of Kcnab2 gave: Tnf reporter robust z-score -0.63; fewer than 50 cells in well enough cells in well. Pp2d1 scored fewer than 50 cells in well fewer than 50 cells per well; well left out of calls. Eif3m scored Tnf reporter robust z-score -1.09; fewer than 50 cells in well enough cells in well. With knock-down of 5830411J07Rik the results were Tnf reporter robust z-score -1.56 (active); fewer than 50 cells in well enough cells in well. Or11h7 scored Tnf reporter robust z-score 1.05; fewer than 50 cells in well enough cells in well. For Clk4, the values are Tnf reporter robust z-score -0.5; fewer than 50 cells in well enough cells in well.

Plekhs1 showed Tnf reporter robust z-score -0.37; fewer than 50 cells in well enough cells in well. Silencing of Zfp184 came out at: fewer than 50 cells in well fewer than 50 cells per well; well left out of calls. Mppe1 gave Tnf reporter robust z-score 0.44; fewer than 50 cells in well enough cells in well. Csnk2a2ip scored Tnf reporter robust z-score 0.98; fewer than 50 cells in well enough cells in well. Silencing of Dohh came out at: Tnf reporter robust z-score 1.66; fewer than 50 cells in well enough cells in well. After knock-down of Tmc6, the record shows Tnf reporter robust z-score -0.83; fewer than 50 cells in well enough cells in well.

After knock-down of BC005537 the results were Tnf reporter robust z-score -0.21; fewer than 50 cells in well enough cells in well. Depletion of Zfyve26 came out at: Tnf reporter robust z-score 0.87; fewer than 50 cells in well enough cells in well.

An excerpt from above, showing only “fewer than 50 cells in well”.
Pp2d1	fewer than 50 cells per well; well left out of calls
Eif3m	enough cells in well
5830411J07Rik	enough cells in well (active)

The results go on.
After knock-down of Khdc3 the results were fewer than 50 cells in well fewer than 50 cells per well; well left out of calls. Cep78 gave Tnf reporter robust z-score 0.43; fewer than 50 cells in well enough cells in well. Knock-down of Vax1 resulted in: fewer than 50 cells in well fewer than 50 cells per well; well left out of calls. Cotl1 gave Tnf reporter robust z-score 1.18; fewer than 50 cells in well enough cells in well. Against Alg14 the deposit lists Tnf reporter robust z-score 0.58; fewer than 50 cells in well enough cells in well. Against Tmem138, the values are fewer than 50 cells in well fewer than 50 cells per well; well left out of calls.

With knock-down of Kcnj8, the record shows Tnf reporter robust z-score 0.13; fewer than 50 cells in well enough cells in well.
